# Reference: the supplement of paper PMC12578635
# This is one part of the list. Cut-off read from the data, not from the text of the source: active = 150% or more and inactive = the rest. Single values are uncertain, as repeats are few or missing.
# Test system: Staphylococcus aureus JE2-lux inside RAW 264.7 macrophages
# Assay: intracellular bacterial bioluminescence relative to DMSO vehicle; higher = higher intracellular bacterial metabolic activity
# Settings: 10 µM; treatment time 4 h; gentamicin 50 µg/ml
row,SMILES,intracellular bacterial bioluminescence
1,Cc1ccc(/C=C2/SC(=S)N(c3ccc(C(=O)O)c(O)c3)C2=O)o1,inactive: 102%
2,Oc1ccc(Br)c(C2Nc3ccc(F)cc3[C@H]3OCC[C@@H]23)c1 (stereo not given in full),inactive: 108%
3,Cc1ccccc1C1CC(=O)c2c(C)nc(N)nc2C1 (stereo not given),inactive: 107%
4,O=C1CC(NS(=O)(=O)c2cccs2)CN1c1ccc(Cl)cc1 (stereo not given),inactive: 107%
5,CCS(=O)(=O)c1ccc(C(=O)Nc2nc3c(Cl)c(Cl)ccc3s2)cc1,active: 152%
6,CCCNC(=O)Cn1nc(-c2ccc(F)cc2)c2cnc3cc(OC)c(OC)cc3c21,inactive: 66.7%
7,CCc1ccccc1NC(=O)Cn1c(C)cc(=O)n2nc(-c3cccc(C)c3)nc12,inactive: 91.4%
8,Cc1cc(=O)n2c3ccccc3n(CC(O)CNc3ccc(C(C)C)cc3)c2c1C#N (stereo not given),inactive: 26.8%
9,CCn1cc(C(=O)Nc2ccc(OC(F)(F)F)cc2)c2nn(-c3ccccc3)c(=O)c-2c1,inactive: 111%
10,Cc1nc2ccccc2c(=O)n1-c1cccc(NC(=O)c2cc([N+](=O)[O-])cc([N+](=O)[O-])c2)c1,inactive: 124%
11,CCC(Oc1ccc(F)cc1)C(=O)Nc1noc(-c2ccccc2C)n1 (stereo not given),inactive: 82.6%
12,NC1=NN(c2ccccc2)C(=O)/C1=N\Nc1ccc2c(c1)OCO2,inactive: 93.4%
13,Cc1cc(NC(=O)CSc2nnc3ccccn23)no1,inactive: 107%
14,Cc1ccc(-c2nsc(NC(=O)COc3ccccc3)n2)s1,inactive: 80.3%
15,COc1ccccc1N1CCN(c2cc(=O)n(-c3ccc(Br)cc3)c(=O)[nH]2)CC1,inactive: 103%
16,CCN1CCN(CCNC(=O)c2cc3n(n2)CCCN(Cc2ccccc2)C3=O)CC1,inactive: 115%
17,Cc1ccc2sc(NNC(=O)c3ccc(S(=O)(=O)N4CC(C)OC(C)C4)cc3)nc2c1C (stereo not given),inactive: 112%
18,COC(=O)c1ccsc1NC(=O)COc1ccc(Cl)cc1Cl,inactive: 103%
19,CCOC(=O)c1c(-c2ccc(F)cc2)csc1NC(=O)CN1CCOCC1,inactive: 97.8%
20,CCN(CC)S(=O)(=O)c1ccc(C(=O)Nc2ncnc3sccc23)cc1,inactive: 85.5%
21,Cc1cccc(NC(=O)C(C)n2c(C)nc3onc(C)c3c2=O)c1 (stereo not given),inactive: 84.5%
22,CCOC(=O)c1c(NC(=O)CSc2nc(N)cc(=O)[nH]2)sc(C)c1C,inactive: 132%
23,CCCc1cc(O)n2nc(-c3cccc(OC)c3)cc2n1,inactive: 107%

# 2 entries from above in another layout:
row	SMILES	intracellular bacterial bioluminescence
4	O=C1CC(NS(=O)(=O)c2cccs2)CN1c1ccc(Cl)cc1 (stereo not given)	inactive: 107%
5	CCS(=O)(=O)c1ccc(C(=O)Nc2nc3c(Cl)c(Cl)ccc3s2)cc1	active: 152%

# Remaining list, next part.

row,SMILES,intracellular bacterial bioluminescence
1,O=C(c1cccn2c(-c3ccc(F)cc3)nnc12)N1CCC(Cc2ccccc2)CC1,inactive: 110%
2,Cn1c(=O)[nH]c(=O)c2c1nc(Br)n2CCSc1nc2ccccc2s1,inactive: 103%
3,COc1ccc(-c2noc(NCc3cccnc3)n2)cc1,inactive: 111%
4,Cc1ccc(Cl)cc1NC(=O)Cn1c(=O)c2nnc(CCC(=O)NC(C)C)n2c2ccccc21,inactive: 74.5%
5,Cc1ccc2cc3c(N)c(C(=O)N4CCN(c5ccccc5)CC4)sc3nc2c1,inactive: 79.6%
6,O=C(CN1C(=O)COc2ccccc21)NNC(=O)Nc1ccccc1F,inactive: 111%
7,Cc1cc(C)cc(NC(=O)CSc2nc3c(c(=O)[nH]2)CN(C(C)C)CC3)c1,inactive: 102%
8,COc1ccccc1CNC(=O)CSc1nc(=O)[nH]cc1C,inactive: 109%
9,Cc1ccc(NC(=O)Cn2c3c(sc2=O)C2c4cc([N+](=O)[O-])ccc4OCC2CS3)cc1 (stereo not given),inactive: 35.6%
10,O=C(Nc1ccc(Cl)cc1)N1CCc2nc(N3CCCCC3)ncc2C1,inactive: 66.3%
11,O=C(Nc1ccc2ccccc2c1)c1cc2ccccc2oc1=O,inactive: 112%
12,Fc1cccc(Cl)c1CSc1nnc2ccc(-c3ccccn3)nn12,inactive: 116%
13,CCn1c(SCC(=O)NCc2ccc(F)cc2)nc2c(c1=O)SC(C)C2 (stereo not given),inactive: 79.6%
14,O=C(NCC(c1cccs1)S(=O)(=O)c1cccs1)Nc1ccc(Cl)cc1 (stereo not given),inactive: 90.6%
15,COc1ccc(C)c2s/c(=N\C(=O)C3COc4ccccc4O3)n(C)c12 (stereo not given),inactive: 75.1%
16,COc1ccc2nc(Nc3sc4c(c3C(N)=O)CCC(C)C4)sc2c1 (stereo not given),inactive: 72.8%
17,CSC1=C(C#N)C(c2ccncc2)C(C(=O)Nc2ccccc2)=C(C)N1 (stereo not given),inactive: 80.2%
18,O=C(CCCn1c(=S)[nH]c2cc3c(cc2c1=O)OCO3)N1CCN(C(=O)c2ccco2)CC1,inactive: 80.6%
19,Cn1c(=O)n(CCCO)c(=O)c2c1nc1n(-c3ccccc3F)c(-c3ccccc3)cn21,inactive: 76.5%
20,Cc1cccc(NC(=O)C(=O)NCCCO)c1C,inactive: 91.5%
21,Cc1cc(C)c2nc3sc(C(=O)N4CCCCCC4)c(N)c3cc2c1,inactive: 74.7%
22,Cc1nc2nc(-c3ccccc3)nn2c(Sc2ccc(N)cc2)c1C,inactive: 101%
23,O=C(Nc1ccc(C(=O)OCc2nc3ccccc3[nH]2)cc1)c1ccc2nccnc2c1,inactive: 123%

row,SMILES,intracellular bacterial bioluminescence
1,Cc1ccc(C2C(C(=O)c3ccco3)=C(O)C(=O)N2CCCN(C)C)cc1 (stereo not given),inactive: 106%
2,CCn1nc(C)c2[nH]c(=S)n(Cc3cccc(OC)c3)c(=O)c21,inactive: 114%
3,C/C(=N\Nc1nc2c(c(=O)[nH]c(=O)n2C)n1CC(C)C)c1ccccc1,inactive: 95.8%
4,CCOc1ccc(-c2cc3c(N4CCC(C(=O)NCc5cccnc5)CC4)nccn3n2)cc1,inactive: 72.9%
5,CCOC(=O)c1ccccc1NC(=O)CSc1nc2c(-c3ccccc3)csc2c(=O)n1C,inactive: 106%
6,COc1ccccc1-n1c(SCC(=O)Nc2ccccc2F)nc2cccnc21,inactive: 83.5%
7,CC1(C)Cc2c(sc(NC(=O)CN3C(=O)CCC3=O)c2C(N)=O)C(C)(C)N1,inactive: 116%
8,O=C(/C=C/c1cccs1)Nc1nc2c(s1)CSc1ccccc1-2,inactive: 104%
9,CC1CN(CC(=O)Nc2ccc3[nH]c(CN4CCCCC4)nc3c2)CC(C)O1 (stereo not given),inactive: 115%
10,Cc1cccc(CNc2nc(N3CCN(C)CC3)nc3c2cnn3C)c1,inactive: 102%
11,CCOc1ccc(C(=O)Nc2cc(=O)n(C)c(=O)n2C)cc1,inactive: 98.9%
12,Cc1cc2c(=O)n(CC(=O)Nc3cnn(Cc4ccc(F)cc4)c3)cnc2s1,inactive: 0.982%
13,CC(NC(=O)C(C)N1C(=O)NC(C)(C)C1=O)c1ccc2c(c1)CCC2 (stereo not given),inactive: 94.6%
14,O=C1C2C(c3ccc(O)cc3)NN(Cc3ccccc3)C2C(=O)N1C1CCCCC1 (stereo not given),inactive: 101%
15,O=C(Nc1nnc(Cc2cccc(F)c2)s1)c1cc2c([nH]c1=O)CCCCC2,inactive: 83.3%
16,CCN(c1ccccc1)S(=O)(=O)c1ccc(C(=O)Nc2ccc3ncsc3c2)cc1,inactive: 98.7%
17,CCOc1cccc2c1OC(c1ccncc1)N1N=C(c3cccc(O)c3)CC21 (stereo not given),inactive: 75%
18,CSc1ncc(C(=O)Nc2nc(-c3c[nH]c4cc(C)ccc34)cs2)cn1,inactive: 135%
19,Cc1nn(-c2ccccc2)c2ncc(C(=O)Nc3ccc4c(c3)OCCO4)c(Cl)c12,inactive: 103%
20,N#CC1=C(N)Oc2c(oc(CO)cc2=O)C12C(=O)N(Cc1ccccc1)c1ccccc12 (stereo not given),inactive: 33.4%
21,CCOc1ccc(CN2C(=O)c3ccccc3C2C(=O)NCCCOC(C)C)cc1 (stereo not given),inactive: 113%
22,CC(=O)Nc1ccc(Nc2ncnc3c2c(C)c(C)n3-c2ccccc2)cc1,inactive: 82.3%
23,Cc1ccc(Cl)cc1NS(=O)(=O)c1cc(-c2nc(C)c(C)s2)cs1,inactive: 31.5%

row,SMILES,intracellular bacterial bioluminescence
1,Cc1ccc(-c2nnc3ccc(SCC(=O)Nc4cc(C)on4)nn23)cc1,inactive: 114%
2,CCn1/c(=N/C(=O)CSCC(=O)Nc2nccs2)sc2ccccc21,inactive: 70.8%
3,O=C(CN1C(=O)CC(c2ccco2)Sc2ccccc21)Nc1ccccc1 (stereo not given),inactive: 81.6%
4,Cc1nonc1NC(=O)CSc1nc2cc3c(cc2cc1C#N)OCCO3,inactive: 62.7%
5,CCOC(=O)Nc1ccc2c(c1)C(=O)Nc1cc(C)ccc1O2,inactive: 97.8%
6,CCOc1ccc2nc(NC(=O)CN3C(=O)c4ccccc4C3=O)sc2c1,inactive: 66.1%
7,CN1CCc2c(sc(NC(=O)c3cc(-c4ccccc4)nc4ccccc34)c2C(N)=O)C1,inactive: 60.9%
8,CC1CCc2c(sc3ncnc(SCC(=O)Nc4ccc(C(=O)O)cc4)c23)C1 (stereo not given),inactive: 71.9%
9,CCOC(=O)c1ccccc1NC(=O)CSc1nc(=O)[nH]c(C)c1C(=O)OCC,inactive: 102%
10,CNC(=S)N(CCc1c(C)[nH]c2ccc(C)cc12)Cc1cccnc1,inactive: 78%
11,O=C(CN1CCC2(CC1)NC(=O)N(Cc1ccc(Cl)cc1)C2=O)Nc1cccc(F)c1,inactive: 44.9%
12,Cc1cc(NC(=O)Cn2c(C)cc(C)c(C#N)c2=O)[nH]n1,inactive: 116%
13,COc1ccc([N+](=O)[O-])cc1NC(=O)c1c[nH]c(=O)n(-c2ccc(OC)c(OC)c2)c1=O,inactive: 120%
14,COc1cccc2sc(NC(=O)c3cccc(C(F)(F)F)c3)nc12,inactive: 111%
15,N#Cc1c2c(c(NCCN3CCCCCC3)n3c1nc1ccccc13)CCC2,inactive: 127%
16,Cc1ccc2sc(NNC(=O)c3nc4ccccc4s3)nc2c1C,inactive: 101%
17,COC(=O)C1Sc2[nH]c(=O)sc2C(c2cccc([N+](=O)[O-])c2)C1C(=O)OC (stereo not given),inactive: 97.5%
18,CCOc1ccccc1C1C(C#N)=C(N)Oc2[nH]nc(-c3ccccc3)c21 (stereo not given),inactive: 80.6%
19,CN1CCN(Nc2ncnc(N)c2[N+](=O)[O-])CC1,inactive: 109%
20,COc1ccccc1NC(=O)CN1C(=O)C2(SCC(=O)N2c2cccc(F)c2)c2cc(C)ccc21 (stereo not given),inactive: 102%
21,COCCNC(=O)CN1CCN(c2ncc(NC(C)=O)cc2C(=O)O)CC1,inactive: 97%

# No new results follow: entries from further up.
row,SMILES,intracellular bacterial bioluminescence
11,O=C(CN1CCC2(CC1)NC(=O)N(Cc1ccc(Cl)cc1)C2=O)Nc1cccc(F)c1,inactive: 44.9%
12,Cc1cc(NC(=O)Cn2c(C)cc(C)c(C#N)c2=O)[nH]n1,inactive: 116%
13,COc1ccc([N+](=O)[O-])cc1NC(=O)c1c[nH]c(=O)n(-c2ccc(OC)c(OC)c2)c1=O,inactive: 120%
